Some of the results follow.

Protein sequences, listed by entry. Tags and fused reporters are not part of them. Lines headed by an entry give the natural chain unless they say otherwise; changes in a name come on top.
UniProt Q92574: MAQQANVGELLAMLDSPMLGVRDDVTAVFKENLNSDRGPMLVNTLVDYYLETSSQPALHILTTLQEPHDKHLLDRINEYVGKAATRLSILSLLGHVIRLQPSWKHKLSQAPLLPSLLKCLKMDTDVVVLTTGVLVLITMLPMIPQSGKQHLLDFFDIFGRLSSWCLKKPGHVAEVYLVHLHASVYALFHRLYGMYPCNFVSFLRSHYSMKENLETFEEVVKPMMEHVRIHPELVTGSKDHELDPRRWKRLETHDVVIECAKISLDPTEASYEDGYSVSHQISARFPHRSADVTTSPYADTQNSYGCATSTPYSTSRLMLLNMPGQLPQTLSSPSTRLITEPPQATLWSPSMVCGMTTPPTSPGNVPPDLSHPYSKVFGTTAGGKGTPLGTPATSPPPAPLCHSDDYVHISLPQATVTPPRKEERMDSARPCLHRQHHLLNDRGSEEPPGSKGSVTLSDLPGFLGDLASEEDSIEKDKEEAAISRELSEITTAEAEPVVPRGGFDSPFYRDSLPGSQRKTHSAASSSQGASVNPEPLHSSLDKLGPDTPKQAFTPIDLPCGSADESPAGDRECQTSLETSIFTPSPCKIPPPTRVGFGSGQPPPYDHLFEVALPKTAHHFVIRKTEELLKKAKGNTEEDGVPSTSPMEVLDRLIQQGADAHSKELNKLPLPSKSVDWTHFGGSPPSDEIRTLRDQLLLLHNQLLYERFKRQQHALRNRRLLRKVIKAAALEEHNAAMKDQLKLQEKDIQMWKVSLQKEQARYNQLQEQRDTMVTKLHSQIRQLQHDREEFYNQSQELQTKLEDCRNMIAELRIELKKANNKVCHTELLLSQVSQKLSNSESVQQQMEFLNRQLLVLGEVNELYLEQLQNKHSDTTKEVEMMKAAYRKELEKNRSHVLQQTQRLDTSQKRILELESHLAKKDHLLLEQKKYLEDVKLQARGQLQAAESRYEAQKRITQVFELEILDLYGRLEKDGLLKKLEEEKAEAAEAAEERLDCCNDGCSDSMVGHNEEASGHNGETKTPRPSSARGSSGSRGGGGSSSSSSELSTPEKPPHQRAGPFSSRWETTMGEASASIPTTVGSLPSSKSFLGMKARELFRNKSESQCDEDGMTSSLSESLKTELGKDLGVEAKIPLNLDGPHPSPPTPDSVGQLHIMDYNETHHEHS
UniProt Q9H2G4: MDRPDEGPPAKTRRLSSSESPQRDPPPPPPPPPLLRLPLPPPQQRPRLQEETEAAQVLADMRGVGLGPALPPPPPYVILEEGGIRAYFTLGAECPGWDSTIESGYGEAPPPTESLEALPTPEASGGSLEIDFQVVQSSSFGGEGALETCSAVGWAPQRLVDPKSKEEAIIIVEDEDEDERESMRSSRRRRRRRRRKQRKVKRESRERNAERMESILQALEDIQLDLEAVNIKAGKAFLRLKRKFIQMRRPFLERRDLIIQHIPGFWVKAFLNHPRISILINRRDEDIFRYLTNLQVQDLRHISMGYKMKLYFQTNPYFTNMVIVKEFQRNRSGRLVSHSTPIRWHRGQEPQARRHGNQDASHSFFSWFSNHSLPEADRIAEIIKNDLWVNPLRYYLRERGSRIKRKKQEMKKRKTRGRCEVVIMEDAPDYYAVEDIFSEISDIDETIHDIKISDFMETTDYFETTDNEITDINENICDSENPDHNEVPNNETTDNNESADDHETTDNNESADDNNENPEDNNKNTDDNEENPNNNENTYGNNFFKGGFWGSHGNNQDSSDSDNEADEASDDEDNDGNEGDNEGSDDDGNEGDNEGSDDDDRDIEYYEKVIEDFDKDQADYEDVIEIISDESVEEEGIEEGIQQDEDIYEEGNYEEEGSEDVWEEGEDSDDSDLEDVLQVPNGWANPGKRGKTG
UniProt Q8NG06: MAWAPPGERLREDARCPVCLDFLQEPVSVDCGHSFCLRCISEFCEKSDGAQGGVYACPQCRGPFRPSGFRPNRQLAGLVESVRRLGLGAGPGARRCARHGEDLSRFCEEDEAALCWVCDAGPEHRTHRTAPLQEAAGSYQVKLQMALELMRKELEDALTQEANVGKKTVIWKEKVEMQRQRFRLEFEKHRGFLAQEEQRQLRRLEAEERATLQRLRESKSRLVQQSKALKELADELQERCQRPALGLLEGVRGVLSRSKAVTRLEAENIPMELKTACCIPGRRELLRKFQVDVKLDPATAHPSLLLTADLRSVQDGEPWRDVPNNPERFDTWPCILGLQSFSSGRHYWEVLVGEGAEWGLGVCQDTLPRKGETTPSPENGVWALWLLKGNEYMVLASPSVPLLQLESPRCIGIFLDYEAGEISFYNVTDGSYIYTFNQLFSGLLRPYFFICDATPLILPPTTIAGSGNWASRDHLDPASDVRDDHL
UniProt Q96Q11: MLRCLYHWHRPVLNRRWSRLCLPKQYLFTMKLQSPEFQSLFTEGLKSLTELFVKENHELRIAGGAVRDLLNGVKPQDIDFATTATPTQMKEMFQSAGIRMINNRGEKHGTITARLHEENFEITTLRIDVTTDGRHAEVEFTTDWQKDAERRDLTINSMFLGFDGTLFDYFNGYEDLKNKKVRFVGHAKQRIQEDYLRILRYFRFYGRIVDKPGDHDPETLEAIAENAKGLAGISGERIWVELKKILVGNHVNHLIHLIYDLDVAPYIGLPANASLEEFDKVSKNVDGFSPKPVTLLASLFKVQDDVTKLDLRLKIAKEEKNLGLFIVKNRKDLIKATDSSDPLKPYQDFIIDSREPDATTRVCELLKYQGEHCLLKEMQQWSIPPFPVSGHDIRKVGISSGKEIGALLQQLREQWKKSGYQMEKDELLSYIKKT
UniProt O43715: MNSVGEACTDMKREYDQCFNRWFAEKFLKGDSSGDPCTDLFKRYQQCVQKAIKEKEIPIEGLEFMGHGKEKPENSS
UniProt Q96LD4: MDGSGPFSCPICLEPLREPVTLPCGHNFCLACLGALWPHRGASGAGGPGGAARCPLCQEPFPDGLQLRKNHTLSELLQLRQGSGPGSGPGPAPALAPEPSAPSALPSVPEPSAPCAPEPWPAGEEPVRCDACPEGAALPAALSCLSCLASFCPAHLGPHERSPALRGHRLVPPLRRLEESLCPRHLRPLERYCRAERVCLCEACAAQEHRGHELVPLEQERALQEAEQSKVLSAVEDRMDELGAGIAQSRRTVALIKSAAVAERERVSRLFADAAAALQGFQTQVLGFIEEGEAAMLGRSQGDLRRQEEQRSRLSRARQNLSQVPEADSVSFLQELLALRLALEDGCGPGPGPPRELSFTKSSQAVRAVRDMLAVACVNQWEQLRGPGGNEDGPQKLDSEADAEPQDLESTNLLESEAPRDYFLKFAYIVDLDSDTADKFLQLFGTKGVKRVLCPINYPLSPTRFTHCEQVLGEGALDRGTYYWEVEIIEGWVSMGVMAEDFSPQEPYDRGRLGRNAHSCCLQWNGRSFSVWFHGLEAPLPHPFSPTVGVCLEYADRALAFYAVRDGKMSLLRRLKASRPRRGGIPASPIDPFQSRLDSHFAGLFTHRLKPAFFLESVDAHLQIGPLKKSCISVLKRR
UniProt Q5BVD1: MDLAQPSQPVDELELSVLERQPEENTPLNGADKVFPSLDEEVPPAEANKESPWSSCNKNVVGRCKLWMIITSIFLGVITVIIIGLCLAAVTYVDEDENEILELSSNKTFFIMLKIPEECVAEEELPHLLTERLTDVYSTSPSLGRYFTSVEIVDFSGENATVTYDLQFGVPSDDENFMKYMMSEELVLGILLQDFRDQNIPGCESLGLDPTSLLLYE
UniProt O95900: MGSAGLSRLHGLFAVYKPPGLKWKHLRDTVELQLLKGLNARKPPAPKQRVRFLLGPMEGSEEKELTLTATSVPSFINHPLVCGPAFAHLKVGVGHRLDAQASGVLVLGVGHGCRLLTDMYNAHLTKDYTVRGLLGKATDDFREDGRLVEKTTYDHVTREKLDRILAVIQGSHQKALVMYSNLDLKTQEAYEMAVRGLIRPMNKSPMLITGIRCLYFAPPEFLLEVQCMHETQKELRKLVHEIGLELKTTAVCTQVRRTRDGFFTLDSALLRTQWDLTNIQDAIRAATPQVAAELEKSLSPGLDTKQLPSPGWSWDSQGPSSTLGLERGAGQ
UniProt Q13114: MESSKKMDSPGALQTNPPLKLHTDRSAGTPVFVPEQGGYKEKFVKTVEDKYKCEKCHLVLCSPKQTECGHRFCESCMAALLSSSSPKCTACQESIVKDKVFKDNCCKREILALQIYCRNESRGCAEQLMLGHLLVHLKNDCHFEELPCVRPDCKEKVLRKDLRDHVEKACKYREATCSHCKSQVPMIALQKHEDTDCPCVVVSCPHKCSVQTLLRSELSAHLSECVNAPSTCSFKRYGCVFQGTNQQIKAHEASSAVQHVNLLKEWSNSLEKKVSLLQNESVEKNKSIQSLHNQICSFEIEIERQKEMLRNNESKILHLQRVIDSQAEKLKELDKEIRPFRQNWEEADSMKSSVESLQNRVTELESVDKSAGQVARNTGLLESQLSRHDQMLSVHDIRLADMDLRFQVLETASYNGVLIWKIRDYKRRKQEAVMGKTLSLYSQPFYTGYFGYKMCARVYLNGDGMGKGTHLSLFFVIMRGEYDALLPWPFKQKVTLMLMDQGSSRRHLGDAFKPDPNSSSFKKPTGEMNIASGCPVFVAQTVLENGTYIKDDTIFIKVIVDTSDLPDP
UniProt Q7Z4L5: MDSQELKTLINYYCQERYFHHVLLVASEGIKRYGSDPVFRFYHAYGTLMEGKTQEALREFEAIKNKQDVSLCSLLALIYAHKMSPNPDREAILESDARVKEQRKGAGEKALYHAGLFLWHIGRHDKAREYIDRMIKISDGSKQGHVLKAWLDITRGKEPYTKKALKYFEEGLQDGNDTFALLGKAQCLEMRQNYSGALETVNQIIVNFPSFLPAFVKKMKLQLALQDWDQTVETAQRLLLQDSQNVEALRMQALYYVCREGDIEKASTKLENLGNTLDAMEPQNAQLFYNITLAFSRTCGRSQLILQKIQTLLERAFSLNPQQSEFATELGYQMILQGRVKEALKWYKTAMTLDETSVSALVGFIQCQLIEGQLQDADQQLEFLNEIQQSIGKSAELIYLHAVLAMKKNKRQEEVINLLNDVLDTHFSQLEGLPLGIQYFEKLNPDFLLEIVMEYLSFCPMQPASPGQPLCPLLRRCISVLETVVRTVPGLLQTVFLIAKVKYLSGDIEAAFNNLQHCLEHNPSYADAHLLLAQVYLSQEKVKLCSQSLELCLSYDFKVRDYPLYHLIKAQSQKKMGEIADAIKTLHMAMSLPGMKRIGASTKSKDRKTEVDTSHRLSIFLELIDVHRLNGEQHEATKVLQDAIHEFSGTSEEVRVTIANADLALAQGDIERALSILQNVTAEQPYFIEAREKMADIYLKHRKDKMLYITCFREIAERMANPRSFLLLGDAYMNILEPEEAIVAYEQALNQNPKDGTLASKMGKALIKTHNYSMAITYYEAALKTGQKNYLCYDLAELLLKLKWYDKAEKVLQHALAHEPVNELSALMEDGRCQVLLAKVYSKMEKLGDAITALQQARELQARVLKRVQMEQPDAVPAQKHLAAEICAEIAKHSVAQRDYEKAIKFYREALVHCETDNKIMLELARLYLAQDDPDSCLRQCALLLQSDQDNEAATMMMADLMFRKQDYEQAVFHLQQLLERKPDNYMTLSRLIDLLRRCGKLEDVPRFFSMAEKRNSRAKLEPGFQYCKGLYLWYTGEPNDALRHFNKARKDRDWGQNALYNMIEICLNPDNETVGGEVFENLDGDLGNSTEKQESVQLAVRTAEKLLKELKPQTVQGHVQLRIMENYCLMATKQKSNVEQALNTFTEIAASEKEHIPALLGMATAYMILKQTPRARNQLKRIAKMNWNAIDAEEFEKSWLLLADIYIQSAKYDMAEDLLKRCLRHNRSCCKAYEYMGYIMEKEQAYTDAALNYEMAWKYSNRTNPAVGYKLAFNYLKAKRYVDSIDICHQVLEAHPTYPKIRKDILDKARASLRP
UniProt Q9UJT2: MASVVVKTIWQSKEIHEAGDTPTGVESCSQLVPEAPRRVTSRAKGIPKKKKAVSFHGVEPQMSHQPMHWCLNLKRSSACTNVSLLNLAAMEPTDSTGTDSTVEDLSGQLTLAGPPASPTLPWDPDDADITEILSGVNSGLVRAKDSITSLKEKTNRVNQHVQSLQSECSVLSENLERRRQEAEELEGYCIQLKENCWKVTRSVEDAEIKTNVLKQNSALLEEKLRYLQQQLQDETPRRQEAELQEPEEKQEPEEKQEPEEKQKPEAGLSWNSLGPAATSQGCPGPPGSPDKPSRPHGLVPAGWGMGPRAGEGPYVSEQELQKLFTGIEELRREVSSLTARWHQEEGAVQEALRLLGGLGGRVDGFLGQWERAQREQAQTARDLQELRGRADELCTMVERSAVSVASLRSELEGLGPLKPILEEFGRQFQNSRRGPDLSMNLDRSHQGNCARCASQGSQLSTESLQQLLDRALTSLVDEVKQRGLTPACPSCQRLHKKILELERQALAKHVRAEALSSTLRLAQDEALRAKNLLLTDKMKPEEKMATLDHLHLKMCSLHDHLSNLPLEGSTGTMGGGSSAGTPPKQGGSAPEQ

Compound in this assay: Cc1cc(Nc2cc(N3CCN(C)CC3)nc(Sc3ccc(NC(=O)C4CC4)cc3)n2)n[nH]1 [tozasertib]
The assay is described as follows: log2 fold change, soluble protein after heating vs DMSO (PISA); higher = thermal stabilisation; K562 lysate, 10 uM; active = over 0.2 and 3.5 SD of the protein, either way, in both replicates (recomputed). An outline of the steps:
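Soluble protein was defined as the supernatant remaining after 21,000xg for 90 min, following pooling of heated aliquots and adjustment to 0.5% NP-40 at 4°C. Before that, crude K562 extract at 1 mg/mL protein in PBS pH 7.4 with 1 mM MgCl2 was treated with 10 μM compound for 30 min and heated for 3 min across 48°C-58°C. Quantification used TMTpro 16plex LC-MS/MS with channel sums equalised, and values are log-two fold changes in thermal stability relative to solvent controls from duplicates.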
As to TSC1 (UniProt Q92574), the log2 fold change was inactive: 0.112.

For the target TTC26, the log2 fold change was inactive: -0.006.

On to TTLL12 (UniProt V9GY16), for which the log2 fold change was inactive: -0.087.

For TSPYL2 (UniProt Q9H2G4), the log2 fold change was inactive: -0.008.

Consider TRIM58 (UniProt Q8NG06), for which the log2 fold change is inactive: -0.043.

As to TRRAP (UniProt Q9Y4A5), the log2 fold change was inactive: 0.018.

For the target TRNT1 (UniProt Q96Q11), the log2 fold change is inactive: 0.025.

As to TRIP10 (UniProt Q15642), the log2 fold change was inactive: 0.003.

For TRIAP1 (UniProt O43715), the log2 fold change is inactive: 0.054.

TSC22D2 (UniProt O75157): the log2 fold change is inactive: 0.009.

TRIM47 (UniProt Q96LD4): the log2 fold change was inactive: 0.008.

With TRIP10 isoform 2 (UniProt Q15642), the log2 fold change is inactive: -0.01.

Take TTMP isoform 3 (UniProt Q5BVD1): the log2 fold change is inactive: -0.022.

For the target TRUB2 (UniProt O95900), the log2 fold change was inactive: 0.116.

TRAF3 (UniProt Q13114): the log2 fold change was inactive: 0.076.

Take TRIM65 (UniProt Q6PJ69): the log2 fold change is inactive: 0.042.

For TTC21B (UniProt Q7Z4L5), the log2 fold change is inactive: -0.109.

For the target TRPM7 (UniProt Q96QT4), the log2 fold change was inactive: 0.008.

Regarding TRAF7 (UniProt Q6Q0C0), the log2 fold change was inactive: 0.124.

Regarding TSKS (UniProt Q9UJT2), the log2 fold change was inactive: 0.035.

On to TRIOBP (UniProt Q9H2D6), for which the log2 fold change was inactive: -0.035.

Take TSPAN3 (UniProt O60637): the log2 fold change was inactive: -0.01.

Turning to TRIO (UniProt O75962), the log2 fold change was inactive: -0.001.

(Values after the supplement of paper PMC10849652.)
